According to the supplement of paper PMC10849652:
The other results are listed elsewhere or left out.

Chains of the proteins cited; added tags and fusions are not shown. Lines headed by an entry give the natural chain unless they say otherwise; changes in a name come on top.
UniProt Q969N2: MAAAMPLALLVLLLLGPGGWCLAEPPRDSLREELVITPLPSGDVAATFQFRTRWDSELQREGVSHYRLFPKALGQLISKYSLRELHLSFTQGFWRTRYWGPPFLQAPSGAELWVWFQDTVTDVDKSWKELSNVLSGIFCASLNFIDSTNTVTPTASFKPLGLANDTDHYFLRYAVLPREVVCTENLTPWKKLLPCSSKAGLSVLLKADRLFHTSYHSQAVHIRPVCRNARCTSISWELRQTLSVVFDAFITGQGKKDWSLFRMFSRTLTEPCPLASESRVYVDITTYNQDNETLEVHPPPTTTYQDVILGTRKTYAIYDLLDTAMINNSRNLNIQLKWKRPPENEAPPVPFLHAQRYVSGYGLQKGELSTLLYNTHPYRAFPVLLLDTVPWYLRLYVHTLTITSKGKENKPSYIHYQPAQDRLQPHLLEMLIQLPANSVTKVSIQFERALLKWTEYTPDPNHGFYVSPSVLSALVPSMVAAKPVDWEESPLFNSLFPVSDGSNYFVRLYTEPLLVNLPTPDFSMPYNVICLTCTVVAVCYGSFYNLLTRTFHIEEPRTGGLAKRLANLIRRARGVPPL
UniProt A6NDG6: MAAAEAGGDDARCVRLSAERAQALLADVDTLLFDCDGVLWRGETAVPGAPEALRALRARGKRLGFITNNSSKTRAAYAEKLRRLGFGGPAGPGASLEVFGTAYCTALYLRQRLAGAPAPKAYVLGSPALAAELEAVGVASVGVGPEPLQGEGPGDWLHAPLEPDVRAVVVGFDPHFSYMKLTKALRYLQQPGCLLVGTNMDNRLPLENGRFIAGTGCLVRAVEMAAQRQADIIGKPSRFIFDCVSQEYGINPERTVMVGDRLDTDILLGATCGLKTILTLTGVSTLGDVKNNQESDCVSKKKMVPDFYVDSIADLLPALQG
UniProt Q86UU1: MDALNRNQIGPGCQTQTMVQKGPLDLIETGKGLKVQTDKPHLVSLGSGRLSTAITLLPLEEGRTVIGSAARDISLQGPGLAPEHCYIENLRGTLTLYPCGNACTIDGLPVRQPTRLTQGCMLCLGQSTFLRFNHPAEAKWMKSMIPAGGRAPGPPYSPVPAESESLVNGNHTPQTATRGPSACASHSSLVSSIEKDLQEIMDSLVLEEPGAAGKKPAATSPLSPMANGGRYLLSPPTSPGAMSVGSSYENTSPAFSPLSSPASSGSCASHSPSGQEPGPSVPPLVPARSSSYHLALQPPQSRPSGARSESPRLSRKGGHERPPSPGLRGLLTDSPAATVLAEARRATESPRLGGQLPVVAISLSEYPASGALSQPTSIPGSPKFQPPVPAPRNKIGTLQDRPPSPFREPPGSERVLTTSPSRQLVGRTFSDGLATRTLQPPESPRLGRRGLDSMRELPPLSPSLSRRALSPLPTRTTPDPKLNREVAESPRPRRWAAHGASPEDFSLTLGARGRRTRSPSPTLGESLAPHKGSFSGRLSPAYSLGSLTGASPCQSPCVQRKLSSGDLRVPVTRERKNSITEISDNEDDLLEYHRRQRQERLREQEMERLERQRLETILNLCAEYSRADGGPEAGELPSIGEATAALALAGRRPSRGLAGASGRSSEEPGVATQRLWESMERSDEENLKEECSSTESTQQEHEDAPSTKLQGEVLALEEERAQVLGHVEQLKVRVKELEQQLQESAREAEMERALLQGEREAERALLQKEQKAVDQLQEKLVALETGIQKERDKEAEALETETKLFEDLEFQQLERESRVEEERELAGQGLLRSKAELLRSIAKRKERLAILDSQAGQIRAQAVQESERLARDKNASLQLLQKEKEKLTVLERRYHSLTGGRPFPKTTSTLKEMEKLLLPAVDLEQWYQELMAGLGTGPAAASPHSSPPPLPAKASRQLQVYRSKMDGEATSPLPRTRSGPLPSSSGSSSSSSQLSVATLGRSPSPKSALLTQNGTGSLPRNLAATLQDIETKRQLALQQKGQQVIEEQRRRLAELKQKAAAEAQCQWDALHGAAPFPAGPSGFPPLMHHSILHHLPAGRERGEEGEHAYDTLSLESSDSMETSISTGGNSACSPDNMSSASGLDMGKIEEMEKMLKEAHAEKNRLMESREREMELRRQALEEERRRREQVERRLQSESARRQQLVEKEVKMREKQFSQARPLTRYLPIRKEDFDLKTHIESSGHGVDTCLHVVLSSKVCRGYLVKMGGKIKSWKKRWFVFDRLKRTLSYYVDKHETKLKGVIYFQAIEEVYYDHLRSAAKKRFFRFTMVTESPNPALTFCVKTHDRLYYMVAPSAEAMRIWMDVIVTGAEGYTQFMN
UniProt O00264: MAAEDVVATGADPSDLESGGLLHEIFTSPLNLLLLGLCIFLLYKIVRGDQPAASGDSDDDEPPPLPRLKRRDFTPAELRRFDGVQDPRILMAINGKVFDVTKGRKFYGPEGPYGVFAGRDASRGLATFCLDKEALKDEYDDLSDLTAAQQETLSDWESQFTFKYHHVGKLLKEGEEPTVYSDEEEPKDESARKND
UniProt P53609, whole entry, looked up: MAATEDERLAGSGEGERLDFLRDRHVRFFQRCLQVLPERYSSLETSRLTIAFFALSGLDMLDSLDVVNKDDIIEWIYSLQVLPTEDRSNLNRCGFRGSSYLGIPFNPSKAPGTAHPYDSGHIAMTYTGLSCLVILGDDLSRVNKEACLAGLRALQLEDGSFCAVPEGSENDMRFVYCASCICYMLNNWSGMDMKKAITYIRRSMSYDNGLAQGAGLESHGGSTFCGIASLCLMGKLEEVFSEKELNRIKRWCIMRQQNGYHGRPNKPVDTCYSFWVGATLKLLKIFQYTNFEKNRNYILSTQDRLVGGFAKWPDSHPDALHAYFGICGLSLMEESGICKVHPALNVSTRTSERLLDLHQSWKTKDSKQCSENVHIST
UniProt Q8WUB8: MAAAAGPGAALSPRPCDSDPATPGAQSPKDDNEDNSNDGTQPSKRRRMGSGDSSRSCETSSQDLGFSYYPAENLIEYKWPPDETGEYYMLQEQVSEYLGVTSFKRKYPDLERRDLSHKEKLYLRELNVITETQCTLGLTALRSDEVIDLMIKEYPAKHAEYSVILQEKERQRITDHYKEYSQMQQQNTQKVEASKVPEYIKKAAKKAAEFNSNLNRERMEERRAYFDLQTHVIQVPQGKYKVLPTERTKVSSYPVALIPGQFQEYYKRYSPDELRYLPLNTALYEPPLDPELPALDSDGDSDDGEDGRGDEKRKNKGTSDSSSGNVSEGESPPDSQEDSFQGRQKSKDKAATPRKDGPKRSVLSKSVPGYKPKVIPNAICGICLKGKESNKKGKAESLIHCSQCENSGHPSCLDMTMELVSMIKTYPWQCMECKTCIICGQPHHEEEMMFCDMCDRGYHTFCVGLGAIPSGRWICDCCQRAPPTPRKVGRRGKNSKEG
UniProt P30613: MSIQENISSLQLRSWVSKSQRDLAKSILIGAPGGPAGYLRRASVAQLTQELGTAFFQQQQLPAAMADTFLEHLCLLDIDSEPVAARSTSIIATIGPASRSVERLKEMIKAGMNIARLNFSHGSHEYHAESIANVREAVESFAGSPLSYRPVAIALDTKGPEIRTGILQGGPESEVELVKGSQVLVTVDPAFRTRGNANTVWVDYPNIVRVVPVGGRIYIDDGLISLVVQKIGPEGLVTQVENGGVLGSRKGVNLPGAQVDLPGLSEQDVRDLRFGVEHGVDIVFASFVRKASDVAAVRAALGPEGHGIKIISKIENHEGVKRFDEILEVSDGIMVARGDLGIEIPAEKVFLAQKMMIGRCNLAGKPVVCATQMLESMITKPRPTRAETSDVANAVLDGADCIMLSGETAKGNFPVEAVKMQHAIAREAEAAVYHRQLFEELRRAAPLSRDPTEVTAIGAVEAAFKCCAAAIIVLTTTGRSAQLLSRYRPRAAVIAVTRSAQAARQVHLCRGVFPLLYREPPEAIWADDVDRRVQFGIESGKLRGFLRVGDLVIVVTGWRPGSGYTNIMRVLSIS
UniProt Q00722, whole entry, looked up: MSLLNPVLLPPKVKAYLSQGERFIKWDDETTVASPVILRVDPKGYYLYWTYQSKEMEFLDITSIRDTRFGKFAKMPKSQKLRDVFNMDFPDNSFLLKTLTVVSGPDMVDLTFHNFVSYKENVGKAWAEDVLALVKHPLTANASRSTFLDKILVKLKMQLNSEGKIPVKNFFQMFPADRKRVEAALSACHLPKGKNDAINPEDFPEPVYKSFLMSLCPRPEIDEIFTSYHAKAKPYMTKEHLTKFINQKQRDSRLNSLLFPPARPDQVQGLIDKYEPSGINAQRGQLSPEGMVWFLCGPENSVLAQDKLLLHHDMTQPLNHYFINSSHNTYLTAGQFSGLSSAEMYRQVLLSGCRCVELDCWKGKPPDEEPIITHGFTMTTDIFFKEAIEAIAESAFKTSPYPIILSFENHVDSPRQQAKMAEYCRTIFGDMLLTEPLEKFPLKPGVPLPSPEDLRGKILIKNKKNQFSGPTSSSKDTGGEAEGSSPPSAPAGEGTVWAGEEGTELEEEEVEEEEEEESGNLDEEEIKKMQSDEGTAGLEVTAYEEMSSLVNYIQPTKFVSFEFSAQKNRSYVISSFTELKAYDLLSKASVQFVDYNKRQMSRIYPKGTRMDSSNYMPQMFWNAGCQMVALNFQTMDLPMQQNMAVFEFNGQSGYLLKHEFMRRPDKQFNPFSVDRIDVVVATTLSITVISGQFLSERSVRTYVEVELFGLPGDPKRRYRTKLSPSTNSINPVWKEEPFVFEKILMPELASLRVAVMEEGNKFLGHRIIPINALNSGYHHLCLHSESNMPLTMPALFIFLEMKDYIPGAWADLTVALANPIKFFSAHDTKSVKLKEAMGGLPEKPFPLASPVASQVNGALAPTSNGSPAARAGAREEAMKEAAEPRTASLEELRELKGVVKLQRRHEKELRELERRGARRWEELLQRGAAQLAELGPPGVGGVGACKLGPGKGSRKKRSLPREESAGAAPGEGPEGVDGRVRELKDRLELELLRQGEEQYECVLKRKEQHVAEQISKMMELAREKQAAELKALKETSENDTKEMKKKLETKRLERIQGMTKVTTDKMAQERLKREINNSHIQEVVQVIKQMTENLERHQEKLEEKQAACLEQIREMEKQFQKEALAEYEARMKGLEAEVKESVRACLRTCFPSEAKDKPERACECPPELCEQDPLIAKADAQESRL
UniProt P15735: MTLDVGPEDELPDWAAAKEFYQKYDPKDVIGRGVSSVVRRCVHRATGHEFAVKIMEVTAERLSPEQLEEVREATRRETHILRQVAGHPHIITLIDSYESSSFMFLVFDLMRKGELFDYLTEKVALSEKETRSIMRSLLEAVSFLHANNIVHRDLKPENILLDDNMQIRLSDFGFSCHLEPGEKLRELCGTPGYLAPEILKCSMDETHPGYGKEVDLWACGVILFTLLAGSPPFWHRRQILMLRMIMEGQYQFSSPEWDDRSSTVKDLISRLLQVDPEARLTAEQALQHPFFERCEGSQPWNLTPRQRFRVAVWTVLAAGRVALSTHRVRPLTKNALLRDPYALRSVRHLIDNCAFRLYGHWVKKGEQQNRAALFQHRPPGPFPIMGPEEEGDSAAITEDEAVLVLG
UniProt Q13393: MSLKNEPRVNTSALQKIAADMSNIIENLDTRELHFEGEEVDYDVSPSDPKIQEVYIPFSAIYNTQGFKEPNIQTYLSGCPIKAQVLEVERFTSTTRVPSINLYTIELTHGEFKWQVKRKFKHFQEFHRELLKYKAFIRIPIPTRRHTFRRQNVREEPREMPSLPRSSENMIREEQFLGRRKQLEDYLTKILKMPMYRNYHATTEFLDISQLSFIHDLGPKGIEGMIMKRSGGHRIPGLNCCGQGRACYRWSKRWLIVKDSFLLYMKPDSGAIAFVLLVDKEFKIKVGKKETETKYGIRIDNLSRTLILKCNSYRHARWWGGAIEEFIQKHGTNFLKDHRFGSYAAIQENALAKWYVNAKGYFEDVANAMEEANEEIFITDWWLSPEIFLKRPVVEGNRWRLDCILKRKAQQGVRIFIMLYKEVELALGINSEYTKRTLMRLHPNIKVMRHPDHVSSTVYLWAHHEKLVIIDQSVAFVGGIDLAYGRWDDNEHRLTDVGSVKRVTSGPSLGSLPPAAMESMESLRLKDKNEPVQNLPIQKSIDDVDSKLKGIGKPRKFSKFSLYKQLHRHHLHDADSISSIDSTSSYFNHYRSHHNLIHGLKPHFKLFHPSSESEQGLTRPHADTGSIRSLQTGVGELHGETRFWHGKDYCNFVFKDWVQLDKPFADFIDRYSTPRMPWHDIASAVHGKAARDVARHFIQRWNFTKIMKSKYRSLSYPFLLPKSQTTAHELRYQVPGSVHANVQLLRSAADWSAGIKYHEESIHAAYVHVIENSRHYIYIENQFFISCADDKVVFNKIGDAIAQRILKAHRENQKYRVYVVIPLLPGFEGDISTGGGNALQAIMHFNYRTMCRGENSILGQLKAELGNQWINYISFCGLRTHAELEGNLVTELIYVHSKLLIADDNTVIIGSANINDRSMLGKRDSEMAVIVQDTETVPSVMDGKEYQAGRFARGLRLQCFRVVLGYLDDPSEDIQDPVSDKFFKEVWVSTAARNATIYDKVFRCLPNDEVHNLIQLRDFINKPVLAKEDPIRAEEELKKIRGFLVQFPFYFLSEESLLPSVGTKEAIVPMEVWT

How the values were obtained:
Experiment in all cases: log2 fold change, soluble protein after heating vs DMSO (PISA); higher = thermal stabilisation; K562 lysate, 10 uM; active = over 0.2 and 3.5 SD of the protein, either way, in both replicates (recomputed)
[1] = compound: C#Cc1cccc(Nc2ncnc3cc(OCCOC)c(OCCOC)cc23)c1 [erlotinib]
Summary of the method: (§1)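 Dounce homogenisation of K562 pellets in PBS pH 7.4 with 1 mM MgCl2 produced a crude extract, used at 1 mg/mL protein. Exposure to 10 μM compound lasted 30 min, and aliquots were then heated for 3 min across 48°C-58°C, pooled and brought to 0.5% NP-40 at 4°C. The supernatant after 21,000xg for 90 min was quantified by TMTpro 16plex LC-MS/MS with channel sums equalised. Duplicate values are given as log-two fold change in thermal stability relative to solvent controls.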

[2] = compound: C/C(=N\NC(=O)C1=CC(=CC=C1)S(=O)(=O)N2CCOCC2)/C3=C(C=CC(=C3)Cl)O
Summary of the method: as §1

[3] = compound: C1=CC(=CC=C1C2=NC3=C(N2)C=C(C=C3)C(=O)N)OC4=CC=C(C=C4)Cl
Summary of the method: as §1

[4] = compound: C1=CC2=C(C=CC(=C2)/C=C\3/C(=O)NC(=NCC4=CC=CS4)S3)N=C1
Summary of the method: as §1

[5] = compound: C1=CC2=NC=CN=C2C=C1/C=C/3\C(=O)NC(=O)S3
Summary of the method: as §1

[6] = compound: C1=CC=C(C=C1)C2=NC(=C(N2)C3=CC=NC=C3)C4=CC(=C(C=C4)Cl)O
Summary of the method: as §1

[7] = compound: C1=CC=C2C(=C1)C3=NNC4=CC=CC(=C43)C2=O
Summary of the method: as §1

[8] = compound: C1CCN(C1)C(=O)NC2=CC=CC(=C2)NC3=NC=C(C(=N3)NCCC4=CN=CN4)Br
Summary of the method: as §1

[9] = compound: C1CN(CCC1(CC2=CC=C(C=C2)Cl)N)C3=NC=NC4=C3C=CN4
Summary of the method: as §1

[10] = compound: C1COCCN1CCN2C3=CC=CC=C3N=C2NC(=O)C4=CC(=CC=C4)[N+](=O)[O-] [IRAK-1-4 Inhibitor I]
Summary of the method: as §1

[11] = compound: C=CC(=O)N1CCC[C@@H](n2nc(-c3ccc(Oc4ccccc4)cc3)c3c(N)ncnc32)C1 [ibrutinib]
Summary of the method: as §1

[12] = compound: CC(=O)c1cnc2ccc(-c3cc(Cl)c(O)c(Cl)c3)nc2c1N[C@H]1CC[C@H](CN(C)C)CC1
Summary of the method: as §1

[13] = compound: CC(C)(C)Cn1c(N)nc2ccc(-c3[nH]c(C(C)(C)C)nc3-c3ccc(F)cc3)nc21 [ralimetinib]
Summary of the method: as §1

[14] = compound: CC(C)(O)CC(=O)NCCn1ccc2ncnc(Nc3ccc(Oc4cccc(C(F)(F)F)c4)c(Cl)c3)c21
Summary of the method: as §1

[15] = compound: CC(C)C1=C2N=C(C=C(N2N=C1)NCC3=CC=CC=C3)NCCCCCCN
Summary of the method: as §1

[16] = compound: CC1=C(C(CC(=O)N1)C2=CC=C(C=C2)C(F)(F)F)C(=O)NC3=C(C=C4C(=C3)C=NN4)F
Summary of the method: as §1

[17] = compound: CC1=C(C2=C(C=C1)C(=O)C3=CC=CC=C3N2CCCN)C
Summary of the method: as §1

[18] = compound: CC1=C(C=C(C=C1)NC(=O)C2=CC(=CC=C2)C(C)(C)C#N)NC3=CC4=C(C=C3)N=CN(C4=O)C
Summary of the method: as §1

[19] = compound: CC1=C(C=C(C=C1)NC(=O)C2=CC(=CC=C2)N(C)C)NC(=O)C3=CC=C(C=C3)O
Summary of the method: as §1

[20] = compound: CC1=CC=C(C=C1)SC2=C3C=C(SC3=CN=C2)C(=O)N
Summary of the method: as §1

Measured: log2 fold change

PIGT (UniProt Q969N2)
inactive: [1] 0.01 | [2] -0.022 | [3] -0.104 | [4] -0.013 | [5] 0.01 | [6] -0.014 | [7] -0.108 | [8] 0.031 | [9] 0.015 | [10] 0.021 | [11] 0.048 | [12] 0.059 | [13] -0.008 | [14] -0.079 | [15] -0.021 | [16] 0.029 | [17] 0.004 | [18] -0.022 | [19] 0.009 | [20] 0.014

PGP (UniProt A6NDG6)
inactive: [1] -0.008 | [2] 0.027 | [3] -0.016 | [4] 0.014 | [5] 0.01 | [6] 0.016 | [7] 0.038 | [8] 0.03 | [9] 0.005 | [10] 0.008 | [11] 0.002 | [12] -0.049 | [13] 0.049 | [14] 0.053 | [15] 0.007 | [16] -0.037 | [17] 0.003 | [18] 0.002 | [19] -0.027 | [20] -0.018

PHLDB1 (UniProt Q86UU1)
inactive: [1] 0.01 | [2] -0.044 | [3] 0.032 | [4] -0.081 | [5] -0.031 | [6] 0.101 | [7] -0.158 | [8] -0.032 | [9] 0.068 | [10] -0.044 | [11] 0.05 | [12] 0.049 | [13] -0.094 | [14] 0.096 | [15] -0.021 | [16] 0.004 | [17] -0.009 | [18] 0.114 | [19] -0.001 | [20] 0.156

PIH1D1 (UniProt Q9NWS0)
inactive: [1] -0.011 | [2] 0.012 | [3] -0.013 | [4] 0.024 | [5] 0.009 | [6] 0.009 | [7] -0.003 | [8] -0.008 | [9] 0 | [10] 0.02 | [11] -0.011 | [12] 0.003 | [13] 0 | [14] -0.009 | [15] -0.023 | [16] 0.006 | [17] -0.007 | [18] 0.001 | [19] 0.012 | [20] -0.005

PGRMC1 (UniProt O00264)
inactive: [1] -0.032 | [2] -0.378 | [3] 0.025 | [4] -0.029 | [5] 0.003 | [6] 0.018 | [7] -0.004 | [8] 0.008 | [9] 0.013 | [10] -0.005 | [11] 0.057 | [12] 0.013 | [13] 0.008 | [14] -0.01 | [15] -0.035 | [16] 0.004 | [17] 0.022 | [18] -0.066 | [19] -0.007 | [20] -0.005

PIK3R4 (UniProt Q99570)
inactive: [1] 0.065 | [2] -0.029 | [3] -0.037 | [4] 0.023 | [5] 0.044 | [6] 0.014 | [7] 0.006 | [8] -0.017 | [9] 0.016 | [10] 0.046 | [11] -0.036 | [12] 0.009 | [13] 0.011 | [14] -0.03 | [15] -0.048 | [16] 0 | [17] -0.014 | [18] 0.012 | [19] -0.008 | [20] 0.011

PGGT1B (UniProt P53609)
inactive: [1] -0.02 | [2] 0.039 | [3] -0.076 | [4] -0.011 | [5] 0.047 | [6] 0.14 | [7] 0.045 | [8] 0.008 | [9] -0.018 | [10] -0.006 | [11] -0.018 | [12] 0.004 | [13] -0.015 | [14] 0.03 | [15] -0.092 | [16] 0.002 | [17] 0.032 | [18] -0.039 | [19] -0.011 | [20] 0.007

PHF10 (UniProt Q8WUB8)
inactive: [1] -0.009 | [2] 0.012 | [3] 0.056 | [4] -0.01 | [5] -0.022 | [6] 0.018 | [7] 0.049 | [8] -0.054 | [9] 0.046 | [10] 0.017 | [11] 0.011 | [12] -0.007 | [13] -0.015 | [14] 0.02 | [15] -0.005 | [16] 0.092 | [17] -0.007 | [18] 0 | [19] -0.062 | [20] 0.018

PKLR (UniProt P30613)
inactive: [1] -0.017 | [2] -0.029 | [3] 0.038 | [4] -0.014 | [5] 0.009 | [6] -0.01 | [7] 0.009 | [8] 0.007 | [9] 0.008 | [10] 0.01 | [11] 0.013 | [12] 0.007 | [13] -0.022 | [14] -0.018 | [15] -0.016 | [16] -0.018 | [17] 0.009 | [18] 0.008 | [19] -0.011 | [20] -0.003

PHF23 (UniProt Q9BUL5)
inactive: [1] -0.016 | [2] 0.007 | [3] -0.099 | [4] -0.018 | [5] -0.01 | [6] 0.005 | [7] -0.01 | [8] -0.065 | [9] -0.014 | [10] 0.049 | [11] 0.003 | [12] 0.024 | [13] 0.015 | [14] -0.049 | [15] 0.049 | [16] -0.023 | [17] 0.024 | [18] 0.001 | [19] 0.074 | [20] -0.009

PLCB2 (UniProt Q00722)
inactive: [1] 0.063 | [2] 0.057 | [3] 0.036 | [4] -0.118 | [5] 0.045 | [6] 0.056 | [7] 0.049 | [8] -0.067 | [9] 0.01 | [10] -0.093 | [11] 0.012 | [12] 0.014 | [13] 0.044 | [14] -0.074 | [15] -0.082 | [16] 0.028 | [17] 0.046 | [18] 0.047 | [19] -0.025 | [20] -0.039

PJA2 (UniProt O43164)
inactive: [1] 0.019 | [2] -0.07 | [3] -0.029 | [4] -0.004 | [5] 0.018 | [6] 0.019 | [7] 0.028 | [8] -0.019 | [9] 0.027 | [10] 0.039 | [11] 0.016 | [12] 0.006 | [13] 0.017 | [14] -0.038 | [15] -0.068 | [16] -0.055 | [17] -0.02 | [18] 0.045 | [19] 0.013 | [20] -0.032

PHKG2 (UniProt P15735)
inactive: [1] -0.106 | [2] 0.062 | [3] 0.04 | [4] 0.075 | [5] 0.104 | [6] 0.022 | [7] 0.231 | [8] 0.045 | [9] -0.011 | [10] 0.036 | [11] -0.099 | [12] 0.168 | [13] 0.003 | [14] -0.011 | [15] 0.03 | [16] -0.029 | [17] -0.018 | [18] -0.018 | [19] -0.004 | [20] -0.027

PLD1 (UniProt Q13393)
inactive: [1] -0.014 | [2] -0.001 | [3] -0.058 | [4] 0.01 | [5] -0.003 | [6] -0.016 | [7] 0.092 | [8] -0.004 | [9] 0.008 | [10] 0.012 | [11] 0.013 | [12] -0.009 | [13] 0.001 | [14] -0.011 | [15] 0.012 | [16] 0.051 | [17] 0 | [18] 0.007 | [19] 0.033 | [20] -0.001

PHGDH (UniProt O43175)
inactive: [1] 0.033 | [2] 0.155 | [3] 0.05 | [4] -0.222 | [5] -0.092 | [6] -0.012 | [7] 0.04 | [8] 0.045 | [9] 0.021 | [10] 0.011 | [11] 0.03 | [12] 0.021 | [13] 0.013 | [14] 0.028 | [15] 0.012 | [16] -0.003 | [17] 0.013 | [18] -0.004 | [19] -0.012 | [20] 0.029

PIR (UniProt O00625)
inactive: [1] 0.017 | [2] -0.212 | [3] 0.01 | [4] 0.034 | [5] -0.034 | [6] 0.006 | [7] 0.151 | [8] 0.014 | [9] 0.027 | [10] -0.02 | [11] 0.029 | [12] -0.01 | [13] -0.017 | [14] 0.019 | [16] -0.034 | [17] 0.007 | [18] -0.003 | [19] 0.232 | [20] -0.022
active: [15] 0.254
